# Patent US20250136937A1, “NOVEL TUMOR-SPECIFIC ANTIGENS FOR COLORECTAL CANCER AND USES THEREOF” (UNIVERSITÉ DE MONTRÉAL, priority 2021, published 2025)
# System: NAT and CRC tissue samples
# Experiment: Relative quantification of MAPs by TMT SPS-MS3 with spiked synthetic peptides, CRC vs matched NAT
# Design: species or system human
# Settings: for Endogenous sample ratio: CRC vs matched NAT; for SPS-MS3 ratio (127N/126): TMT127N (CRC) / TMT126 (NAT)
# Experimental: TMT labeling. MAP extracts were resuspended in 200 mM Hepes buffer pH 8.1. 50 μg of TMT reagent (Thermo Fisher Scientific) in anhydrous acetonitrile was added to samples as follows: CRC cell line replicates were labeled with TMT6plex (lot #UG287166) channels TMT6-126-129; Tissue samples were labeled with TMT10plex (lot #UH285228) −126 (NAT) and −127N (tumor). Samples were gently vortexed and reacted at room temperature for 1.5 hours. Samples were then quenched with 50% hydroxylamine for 30 minutes at room temperature, then were diluted with 4% FA/H2O. CRC cell line replicates and individual NAT-tumor pairs were combined. Samples were then desalted on homemade C18 membrane (Empore) columns and stored at −20° C. until injection. To quantify MAPs of interest in primary tissue samples, synthetic peptides at concentrations of 0.75 to 192 fmoles were labeled with TMT 10plex channels −128N, −128C, −129N, −129C, −130N, −130C, −131, while the NAT and CRC tissues were labeled with −126 and 127N, respectively. Note that the channel −127C was left empty to assess contamination between channels.
# Relative quantification. To relatively quantify MAPs of interest in primary tissue samples, synthetic peptides at concentrations of 10, 100, or 1000 fmol labeled with TMT 10plex-129N, 130N, and 131N, respectively, were spiked into remaining purified MAPs from NAT and CRC tissue samples labeled with TMT10plex-126 and 127N, respectively. Note that the channel TMT 10plex-127C was left empty to assess contamination. Samples were analyzed with an Orbitrap Fusion Tribrid spectrometer (Thermo Fisher Scientific) in positive ion mode with Nanoflex source at 2.4 kV. For synchronous precursor selection MS3 (SPS-MS3), full MS scans were acquired with a range of 300-1000 m/z, Orbitrap resolution of 120 000, automatic gain control (AGC) of 5.0e5, and a maximum injection time of 50 ms, using an inclusion list for the peptides of interest. A 3s top speed approach for MS2 was used in the ion trap, with an isolation window of 0.4m/z, collision induced dissociation of 35%, a ‘normal’ ion trap scan rate mode, 2.0e4 AGC target, and 50 ms maximum injection time. This was followed by the selection of eight synchronous precursor ions for MS3 acquisition, which was done with a scan range of 110-500 m/z, Orbitrap resolution of 50 000, AGC of 1.0e5, maximum injection time of 300 ms, an isolation window of 2.0m/z, and 65% HCD collision energy. LC-MS instrument was controlled using Xcalibur version 4.4 (Thermo Fisher Scientific, Inc). Error tolerances for precursor mass and fragment ions were set to 10.0 ppm and 0.5 Da, respectively. A non-specific digest mode was used. TMT10plex was set as a fixed PTM, and variable modifications included phosphorylation (STY), Oxidation (M), Deamidation (NQ), and TMT10plex STY. For quantification, PSMs were filtered to exclude those with contamination in the TMT10plex-127C channel, and to select those within the 70th intensity percentile. MS2 precursor profiles and intensity profiles of all relevant channels were manually inspected to select peptides for quantification. Intensity ratios for each peptide were calculated using the average TMT10plex-127N and TMT10plex-126 intensities of good quality PSMs.
# Experimental Design and Statistical Rationale. To effectively elucidate the MHC I immunopeptidome of colorectal cancer, 4 CRC cell lines were selected and 6 samples from human subjects consisting of both matched tumor and normal adjacent tissue (NAT) were acquired. […] Since no matched samples were available for cell lines, a pool of 6 mTEC samples was used in the creation of global cancer databases, to obtain a wide berth of approximate normal RNA expression. […] For t-tests, f-tests were performed to determine whether the dataset had significant variation; if yes, then the t-test assuming variation was used, and otherwise the t-test assuming no variation was used. […]
sequence,measurement,setting,value
"AQKLQVRI [aeTSA, intergenic, S5; predicted HLA-B*52:01]",Endogenous sample ratio,sample S5,0.793
"AQYDQASTKY (listed as Homo sapiens) [TAA, CENPF exon, S4; predicted HLA-B*15:01]",Endogenous sample ratio,sample S4,1.452
"FVDNQYWRY (listed as Homo sapiens) [TAA, MMP12 exon, S4; predicted HLA-A*01:01]",Endogenous sample ratio,sample S4,0.721
same,SPS-MS3 ratio (127N/126),sample S4,10.954
"GQIELSIYR [aeTSA, PATJ intron, S5; predicted HLA-A*03:01]",Endogenous sample ratio,sample S5,0.328
"GTNPTAAVK (listed as Homo sapiens) [aeTSA, HKDC1 exon, S2; predicted HLA-A*03:02]",Endogenous sample ratio,sample S2,2.095
same,SPS-MS3 ratio (127N/126),sample S2,12.174
"HGALSIRSI [aeTSA, intron, S5; predicted HLA-B*52:01]",Endogenous sample ratio,sample S5,0.777
"KIGEVIVTK (listed as Homo sapiens) [mTSA, HSPD1 exon, S2; predicted HLA-A*03:02]",Endogenous sample ratio,sample S2,2.506
same,SPS-MS3 ratio (127N/126),sample S2,13.637
"KSINEFWNK (listed as Homo sapiens) [TAA, SPC25 exon, S2; predicted HLA-A*03:02]",Endogenous sample ratio,sample S2,2.212
same,SPS-MS3 ratio (127N/126),sample S2,5.238
"LPHRALSGI (listed as Homo sapiens) [aeTSA, NKD1 intron, S1; predicted HLA-B*07:02]",Endogenous sample ratio,sample S1,−0.364
"LRHKLVLNR (listed as Homo sapiens) [aeTSA, GRIN2B 3' UTR, S2; predicted HLA-B*27:05]",Endogenous sample ratio,sample S2,0.307
"QMAGLRDTY (listed as Homo sapiens) [TAA, SPC25 exon, S3; predicted HLA-A*01:01]",Endogenous sample ratio,sample S3,1.140
same,SPS-MS3 ratio (127N/126),sample S3,2.884
"RIQLPVVSK (listed as Homo sapiens) [TAA, MKI67 exon, S2, S4; predicted HLA-A*03:02, HLA-A*11:01]",Endogenous sample ratio,sample S4,1.083
same,SPS-MS3 ratio (127N/126),sample S4,2.073
"RLMKFLPV [aeTSA, intergenic, S5; predicted HLA-B*13:02]",Endogenous sample ratio,sample S5,0.171
"RNRQVATAL (listed as Homo sapiens) [aeTSA, SUCNR1 exon, S6; predicted HLA-B*07:02; previously reported in US2022/0002374]",Endogenous sample ratio,sample S1,0.890
same,SPS-MS3 ratio (127N/126),sample S1,3.507
same,Endogenous sample ratio,sample S6,1.090
same,SPS-MS3 ratio (127N/126),sample S6,5.722
"RYLEKFYGL (listed as Homo sapiens) [TAA, MMP12 exon, S1, S6; predicted HLA-A*24:02, HLA-A*23:01]",abundance in tumor compared to NAT,S1 tumor,overexpressed
same,Endogenous sample ratio,sample S1,2.840
same,SPS-MS3 ratio (127N/126),sample S1,7.661
same,Endogenous sample ratio,sample S6,2.970
same,SPS-MS3 ratio (127N/126),sample S6,16.090
"SANVSKVSF (listed as Homo sapiens) [TAA, ASPM exon, S5; predicted HLA-C*12:02]",Endogenous sample ratio,sample S5,1.114
same,SPS-MS3 ratio (127N/126),sample S5,2.321
"SIIETVNSL (listed as Homo sapiens) [aeTSA, IPP intron, S2; predicted HLA-A*02:01]",Endogenous sample ratio,sample S2,0.288
"SLYISEERK [aeTSA, TRPC6 lncRNA, S5; predicted HLA-A*03:01]",Endogenous sample ratio,sample S5,0.046
"SVSHLHIFF (listed as Homo sapiens) [aeTSA, intergenic, S3; predicted HLA-A*32:01]",Endogenous sample ratio,sample S3,−1.100
"TRSTIILHL (listed as Homo sapiens) [mTSA, PLK1 exon, S3; predicted HLA-C*06:02]",Endogenous sample ratio,sample S3,1.381
same,SPS-MS3 ratio (127N/126),sample S3,48.807
"TTLENLPQK (listed as Homo sapiens) [aeTSA, COL11A1 exon frameshift, S4; predicted HLA-A*11:01]",Endogenous sample ratio,sample S4,0.134
same,SPS-MS3 ratio (127N/126),sample S4,3.783
"TVNTQQYNTK (listed as Homo sapiens) [aeTSA, CYP39A1 intron, S2; predicted HLA-A*03:02]",Endogenous sample ratio,sample S2,−0.021
"TYKYVDINTF (listed as Homo sapiens) [TAA, MMP12 exon, S1; predicted HLA-A*24:02]",Endogenous sample ratio,sample S1,1.969
same,SPS-MS3 ratio (127N/126),sample S1,8.226
"VEAPHLPSF (listed as Homo sapiens) [aeTSA, COL11A1 5' UTR, S6; predicted HLA-B*18:01; previously reported in WO2020/131586]",Endogenous sample ratio,sample S6,1.059
same,SPS-MS3 ratio (127N/126),sample S6,41.318
"VLYRSVLLLK (listed as Homo sapiens) [ncTAA, FANCA intron, S6; predicted HLA-A*03:01]",Endogenous sample ratio,sample S6,0.997
"VQTAVLNV (listed as Homo sapiens) [aeTSA, intergenic, S5; predicted HLA-B*52:01]",Endogenous sample ratio,sample S5,1.089
